From publication doi:10.1101/2020.11.05.369959
No constants are given. Whether binding was seen depends on the method and setting. Binding seen in cells or lysates may run through a third protein. Some binding calls cover weakened binding; strength is not graded here.

By UniProt entry, the sequences of proteins in these tests, tags left out.
UniProt Q9C0K0: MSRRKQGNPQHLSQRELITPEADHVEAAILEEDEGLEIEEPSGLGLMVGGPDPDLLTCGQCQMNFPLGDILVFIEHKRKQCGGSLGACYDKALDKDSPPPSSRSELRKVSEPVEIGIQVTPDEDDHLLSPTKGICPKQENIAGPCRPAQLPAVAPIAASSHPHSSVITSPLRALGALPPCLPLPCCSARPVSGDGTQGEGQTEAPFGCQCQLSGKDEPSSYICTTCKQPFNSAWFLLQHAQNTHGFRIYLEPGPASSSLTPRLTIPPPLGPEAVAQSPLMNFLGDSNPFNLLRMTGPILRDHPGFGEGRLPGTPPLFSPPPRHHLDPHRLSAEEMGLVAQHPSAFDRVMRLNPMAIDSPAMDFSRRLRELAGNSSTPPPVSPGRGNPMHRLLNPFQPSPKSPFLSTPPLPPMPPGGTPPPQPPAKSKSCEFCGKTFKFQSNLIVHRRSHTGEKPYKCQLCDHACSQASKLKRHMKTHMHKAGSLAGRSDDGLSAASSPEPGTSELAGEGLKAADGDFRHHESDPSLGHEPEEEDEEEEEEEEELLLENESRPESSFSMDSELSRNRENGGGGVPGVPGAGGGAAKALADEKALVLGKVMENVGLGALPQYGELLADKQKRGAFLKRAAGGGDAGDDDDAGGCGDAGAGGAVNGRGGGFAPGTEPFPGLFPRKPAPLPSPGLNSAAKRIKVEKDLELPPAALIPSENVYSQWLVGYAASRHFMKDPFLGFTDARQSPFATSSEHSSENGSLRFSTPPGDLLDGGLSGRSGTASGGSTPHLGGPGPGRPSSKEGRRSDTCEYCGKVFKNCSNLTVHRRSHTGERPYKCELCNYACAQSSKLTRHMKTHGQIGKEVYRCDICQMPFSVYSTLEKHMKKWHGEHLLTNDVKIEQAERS
UniProt P35637: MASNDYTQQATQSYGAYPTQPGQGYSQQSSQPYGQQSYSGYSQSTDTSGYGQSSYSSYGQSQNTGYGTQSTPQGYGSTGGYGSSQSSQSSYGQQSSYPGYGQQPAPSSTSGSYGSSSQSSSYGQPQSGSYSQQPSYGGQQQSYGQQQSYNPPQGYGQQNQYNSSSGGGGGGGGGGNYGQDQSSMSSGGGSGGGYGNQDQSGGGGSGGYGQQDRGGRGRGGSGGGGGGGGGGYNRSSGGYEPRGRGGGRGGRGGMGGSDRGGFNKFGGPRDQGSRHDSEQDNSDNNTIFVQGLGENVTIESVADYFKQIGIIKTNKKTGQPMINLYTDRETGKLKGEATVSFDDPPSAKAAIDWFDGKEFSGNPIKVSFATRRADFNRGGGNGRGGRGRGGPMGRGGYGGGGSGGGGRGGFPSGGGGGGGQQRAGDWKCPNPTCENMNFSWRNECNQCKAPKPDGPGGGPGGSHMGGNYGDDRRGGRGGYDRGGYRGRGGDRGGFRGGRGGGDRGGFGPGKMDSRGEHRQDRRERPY
UniProt Q16637: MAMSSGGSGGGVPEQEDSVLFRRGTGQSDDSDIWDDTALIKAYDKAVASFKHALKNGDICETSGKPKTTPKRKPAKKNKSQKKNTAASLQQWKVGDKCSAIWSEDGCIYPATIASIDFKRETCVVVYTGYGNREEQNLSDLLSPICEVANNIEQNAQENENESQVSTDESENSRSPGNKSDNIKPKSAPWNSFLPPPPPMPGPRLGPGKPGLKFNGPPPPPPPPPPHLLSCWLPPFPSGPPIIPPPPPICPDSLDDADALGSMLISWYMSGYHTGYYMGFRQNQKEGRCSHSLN

Biological target: Flag-BCL11b (B-cell lymphoma/leukemia 11B) (UniProt Q9C0K0)
Assay: co-IP

| Substance | binding |
| --- | --- |
| FUS (from UniProt P35637 1-526) | binds |
| SMN1 (from UniProt Q16637 1-294) | binds |
